Test results published in the supplement of paper PMC10849652.
Some of the results follow.

The chains behind the UniProt entries cited, without tags or fusion partners. Where a name states a change or a piece, a line headed by the entry shows the natural chain unless it says otherwise.
UniProt Q9Y316: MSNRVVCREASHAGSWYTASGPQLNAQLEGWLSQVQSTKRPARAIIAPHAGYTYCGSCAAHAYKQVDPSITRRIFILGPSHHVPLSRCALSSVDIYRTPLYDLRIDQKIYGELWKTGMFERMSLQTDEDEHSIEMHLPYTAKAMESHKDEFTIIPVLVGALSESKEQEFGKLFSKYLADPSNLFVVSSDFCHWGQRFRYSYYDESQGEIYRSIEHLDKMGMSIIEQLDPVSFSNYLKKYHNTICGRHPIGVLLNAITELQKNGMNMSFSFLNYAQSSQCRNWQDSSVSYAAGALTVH
UniProt Q9H944: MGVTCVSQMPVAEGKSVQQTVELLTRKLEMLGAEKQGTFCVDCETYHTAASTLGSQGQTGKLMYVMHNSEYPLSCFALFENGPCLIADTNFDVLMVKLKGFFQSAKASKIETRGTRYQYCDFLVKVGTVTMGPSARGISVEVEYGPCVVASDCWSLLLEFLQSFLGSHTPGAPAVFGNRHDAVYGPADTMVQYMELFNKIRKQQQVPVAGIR
UniProt O14770: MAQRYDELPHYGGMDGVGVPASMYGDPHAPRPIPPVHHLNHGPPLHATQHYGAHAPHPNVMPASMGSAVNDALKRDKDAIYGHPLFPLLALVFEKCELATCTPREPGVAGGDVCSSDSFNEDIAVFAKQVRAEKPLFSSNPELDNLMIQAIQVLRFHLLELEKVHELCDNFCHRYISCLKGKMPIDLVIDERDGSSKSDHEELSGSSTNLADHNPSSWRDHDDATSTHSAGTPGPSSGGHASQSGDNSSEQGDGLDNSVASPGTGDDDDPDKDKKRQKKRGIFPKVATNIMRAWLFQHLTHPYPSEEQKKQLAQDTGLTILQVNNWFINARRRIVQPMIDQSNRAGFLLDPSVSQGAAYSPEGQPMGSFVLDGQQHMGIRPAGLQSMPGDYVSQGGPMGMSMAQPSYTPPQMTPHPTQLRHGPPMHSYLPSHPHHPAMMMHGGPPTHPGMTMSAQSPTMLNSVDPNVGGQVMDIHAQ
UniProt Q96HR3: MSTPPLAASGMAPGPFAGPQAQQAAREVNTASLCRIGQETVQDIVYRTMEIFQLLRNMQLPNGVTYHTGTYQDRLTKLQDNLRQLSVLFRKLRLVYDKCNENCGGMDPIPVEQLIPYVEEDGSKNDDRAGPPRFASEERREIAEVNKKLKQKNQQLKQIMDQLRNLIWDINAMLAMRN
UniProt Q9NPJ6: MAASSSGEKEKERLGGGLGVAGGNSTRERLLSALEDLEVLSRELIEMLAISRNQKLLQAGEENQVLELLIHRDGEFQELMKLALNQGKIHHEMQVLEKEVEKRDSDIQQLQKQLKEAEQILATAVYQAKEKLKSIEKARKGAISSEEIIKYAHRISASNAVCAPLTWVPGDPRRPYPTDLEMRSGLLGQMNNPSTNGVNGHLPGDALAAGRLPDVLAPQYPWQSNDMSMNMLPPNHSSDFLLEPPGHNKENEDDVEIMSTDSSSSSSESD
UniProt Q8NI22: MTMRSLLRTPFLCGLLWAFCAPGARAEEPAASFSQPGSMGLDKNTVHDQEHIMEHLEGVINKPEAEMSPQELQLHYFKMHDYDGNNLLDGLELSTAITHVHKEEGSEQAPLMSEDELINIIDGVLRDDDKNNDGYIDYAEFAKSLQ
UniProt Q16798: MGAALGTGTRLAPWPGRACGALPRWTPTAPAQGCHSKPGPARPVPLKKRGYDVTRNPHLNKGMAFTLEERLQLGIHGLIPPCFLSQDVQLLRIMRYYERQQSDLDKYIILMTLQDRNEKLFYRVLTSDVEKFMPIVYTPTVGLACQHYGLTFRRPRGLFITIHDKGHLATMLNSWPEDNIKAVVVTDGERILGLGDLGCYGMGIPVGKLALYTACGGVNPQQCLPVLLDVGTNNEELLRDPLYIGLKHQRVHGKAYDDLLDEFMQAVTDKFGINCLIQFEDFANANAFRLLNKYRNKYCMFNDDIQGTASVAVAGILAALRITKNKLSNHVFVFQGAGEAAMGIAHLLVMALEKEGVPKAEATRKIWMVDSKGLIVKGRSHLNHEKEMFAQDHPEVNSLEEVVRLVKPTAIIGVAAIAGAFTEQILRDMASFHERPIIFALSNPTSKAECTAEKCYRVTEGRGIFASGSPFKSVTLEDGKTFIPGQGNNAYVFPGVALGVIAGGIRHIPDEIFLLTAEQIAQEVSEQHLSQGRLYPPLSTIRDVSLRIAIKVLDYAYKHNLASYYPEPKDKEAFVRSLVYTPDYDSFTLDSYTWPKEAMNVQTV
UniProt Q8IWA4: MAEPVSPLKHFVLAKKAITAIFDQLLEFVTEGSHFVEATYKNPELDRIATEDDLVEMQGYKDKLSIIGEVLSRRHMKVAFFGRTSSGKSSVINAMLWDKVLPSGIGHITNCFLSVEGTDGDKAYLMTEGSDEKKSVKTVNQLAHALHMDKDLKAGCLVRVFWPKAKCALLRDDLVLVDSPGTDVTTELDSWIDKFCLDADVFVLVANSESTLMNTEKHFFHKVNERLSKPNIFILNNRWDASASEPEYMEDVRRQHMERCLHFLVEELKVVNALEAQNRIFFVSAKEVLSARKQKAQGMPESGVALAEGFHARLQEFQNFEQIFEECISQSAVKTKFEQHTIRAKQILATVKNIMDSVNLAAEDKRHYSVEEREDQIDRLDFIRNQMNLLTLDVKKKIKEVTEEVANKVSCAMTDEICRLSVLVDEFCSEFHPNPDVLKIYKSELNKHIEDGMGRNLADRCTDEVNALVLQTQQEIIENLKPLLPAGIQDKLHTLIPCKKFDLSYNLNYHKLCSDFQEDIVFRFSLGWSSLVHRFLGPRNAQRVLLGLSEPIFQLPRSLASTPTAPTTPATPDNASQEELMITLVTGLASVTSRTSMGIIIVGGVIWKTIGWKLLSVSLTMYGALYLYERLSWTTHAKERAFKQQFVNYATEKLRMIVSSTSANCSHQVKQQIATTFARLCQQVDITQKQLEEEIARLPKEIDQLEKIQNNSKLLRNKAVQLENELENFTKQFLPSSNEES
UniProt O60244: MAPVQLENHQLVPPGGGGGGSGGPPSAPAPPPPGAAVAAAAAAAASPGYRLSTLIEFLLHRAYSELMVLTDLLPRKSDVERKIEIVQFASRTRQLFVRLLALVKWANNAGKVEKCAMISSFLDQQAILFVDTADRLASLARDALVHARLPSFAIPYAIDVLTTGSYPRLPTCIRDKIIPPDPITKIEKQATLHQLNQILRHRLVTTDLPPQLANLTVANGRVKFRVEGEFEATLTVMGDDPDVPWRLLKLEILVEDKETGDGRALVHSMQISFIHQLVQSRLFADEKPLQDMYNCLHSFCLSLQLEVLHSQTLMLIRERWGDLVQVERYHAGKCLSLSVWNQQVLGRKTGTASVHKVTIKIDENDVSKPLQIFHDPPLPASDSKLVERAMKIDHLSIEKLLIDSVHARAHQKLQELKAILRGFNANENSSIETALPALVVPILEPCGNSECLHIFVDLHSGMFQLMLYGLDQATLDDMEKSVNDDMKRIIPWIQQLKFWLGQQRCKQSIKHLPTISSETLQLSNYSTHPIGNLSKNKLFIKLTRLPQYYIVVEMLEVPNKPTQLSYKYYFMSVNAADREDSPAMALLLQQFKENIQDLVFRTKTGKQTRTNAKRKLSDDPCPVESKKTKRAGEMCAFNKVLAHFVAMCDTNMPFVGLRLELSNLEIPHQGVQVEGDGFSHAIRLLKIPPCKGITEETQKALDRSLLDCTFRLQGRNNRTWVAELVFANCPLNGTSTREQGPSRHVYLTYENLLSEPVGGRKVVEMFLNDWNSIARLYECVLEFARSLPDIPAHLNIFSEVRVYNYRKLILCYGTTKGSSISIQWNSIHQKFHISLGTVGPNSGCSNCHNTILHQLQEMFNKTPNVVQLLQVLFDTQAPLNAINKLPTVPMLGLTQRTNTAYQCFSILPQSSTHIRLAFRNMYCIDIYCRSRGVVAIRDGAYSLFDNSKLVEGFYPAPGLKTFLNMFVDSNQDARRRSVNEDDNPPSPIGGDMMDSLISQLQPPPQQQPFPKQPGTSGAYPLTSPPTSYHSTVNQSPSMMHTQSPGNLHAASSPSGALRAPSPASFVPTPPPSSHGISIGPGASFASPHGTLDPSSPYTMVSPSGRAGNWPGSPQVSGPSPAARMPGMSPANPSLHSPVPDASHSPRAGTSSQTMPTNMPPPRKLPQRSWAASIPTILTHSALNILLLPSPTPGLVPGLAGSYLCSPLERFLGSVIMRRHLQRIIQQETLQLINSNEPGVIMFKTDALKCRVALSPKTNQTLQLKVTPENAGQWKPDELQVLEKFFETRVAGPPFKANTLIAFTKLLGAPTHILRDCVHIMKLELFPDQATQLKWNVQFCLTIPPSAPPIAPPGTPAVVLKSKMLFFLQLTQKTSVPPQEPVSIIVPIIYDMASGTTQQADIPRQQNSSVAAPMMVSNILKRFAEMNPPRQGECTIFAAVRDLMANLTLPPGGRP
UniProt P50579: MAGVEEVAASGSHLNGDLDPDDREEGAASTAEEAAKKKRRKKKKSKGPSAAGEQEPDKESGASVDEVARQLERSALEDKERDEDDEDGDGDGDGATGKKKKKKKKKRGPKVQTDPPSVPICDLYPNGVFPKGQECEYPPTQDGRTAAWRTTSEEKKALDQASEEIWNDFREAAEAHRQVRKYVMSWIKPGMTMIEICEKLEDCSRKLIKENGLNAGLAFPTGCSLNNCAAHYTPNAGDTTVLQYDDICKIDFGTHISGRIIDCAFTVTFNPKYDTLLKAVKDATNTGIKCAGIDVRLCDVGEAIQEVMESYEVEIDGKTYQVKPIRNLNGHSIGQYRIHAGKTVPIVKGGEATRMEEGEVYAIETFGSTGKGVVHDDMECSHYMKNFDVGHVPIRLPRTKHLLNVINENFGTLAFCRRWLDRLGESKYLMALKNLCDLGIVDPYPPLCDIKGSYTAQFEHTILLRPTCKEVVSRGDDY
UniProt O95983: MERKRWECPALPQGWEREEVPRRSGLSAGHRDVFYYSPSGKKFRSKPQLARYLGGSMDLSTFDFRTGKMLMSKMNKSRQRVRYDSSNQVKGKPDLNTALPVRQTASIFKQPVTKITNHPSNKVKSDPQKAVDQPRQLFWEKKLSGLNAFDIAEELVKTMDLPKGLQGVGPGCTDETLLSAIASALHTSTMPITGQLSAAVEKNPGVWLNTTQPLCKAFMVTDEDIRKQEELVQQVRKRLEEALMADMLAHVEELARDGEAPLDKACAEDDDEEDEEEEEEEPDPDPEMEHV
UniProt Q8NE86: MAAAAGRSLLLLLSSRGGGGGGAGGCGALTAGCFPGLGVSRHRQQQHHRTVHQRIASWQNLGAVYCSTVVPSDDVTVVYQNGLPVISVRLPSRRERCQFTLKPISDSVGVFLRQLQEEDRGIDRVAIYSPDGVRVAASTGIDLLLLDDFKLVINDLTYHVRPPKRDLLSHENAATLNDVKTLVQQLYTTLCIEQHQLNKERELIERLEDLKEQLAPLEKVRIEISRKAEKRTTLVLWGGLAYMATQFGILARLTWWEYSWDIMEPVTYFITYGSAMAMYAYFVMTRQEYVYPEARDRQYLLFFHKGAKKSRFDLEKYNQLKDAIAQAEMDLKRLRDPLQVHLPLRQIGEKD
UniProt P48163: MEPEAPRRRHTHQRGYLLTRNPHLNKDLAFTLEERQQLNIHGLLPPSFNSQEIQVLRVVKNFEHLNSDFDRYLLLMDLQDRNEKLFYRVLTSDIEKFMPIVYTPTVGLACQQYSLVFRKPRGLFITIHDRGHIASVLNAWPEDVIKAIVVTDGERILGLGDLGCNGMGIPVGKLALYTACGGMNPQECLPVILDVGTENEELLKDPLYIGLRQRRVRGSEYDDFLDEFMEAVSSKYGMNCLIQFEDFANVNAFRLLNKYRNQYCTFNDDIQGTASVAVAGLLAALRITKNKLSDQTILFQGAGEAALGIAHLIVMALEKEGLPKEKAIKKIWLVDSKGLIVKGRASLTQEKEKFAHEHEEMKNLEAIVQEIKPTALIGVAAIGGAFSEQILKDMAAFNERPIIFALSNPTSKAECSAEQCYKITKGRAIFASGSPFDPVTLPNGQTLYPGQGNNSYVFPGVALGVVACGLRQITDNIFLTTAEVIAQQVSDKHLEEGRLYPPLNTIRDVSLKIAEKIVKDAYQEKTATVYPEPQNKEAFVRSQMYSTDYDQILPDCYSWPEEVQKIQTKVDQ
UniProt Q8IVS2: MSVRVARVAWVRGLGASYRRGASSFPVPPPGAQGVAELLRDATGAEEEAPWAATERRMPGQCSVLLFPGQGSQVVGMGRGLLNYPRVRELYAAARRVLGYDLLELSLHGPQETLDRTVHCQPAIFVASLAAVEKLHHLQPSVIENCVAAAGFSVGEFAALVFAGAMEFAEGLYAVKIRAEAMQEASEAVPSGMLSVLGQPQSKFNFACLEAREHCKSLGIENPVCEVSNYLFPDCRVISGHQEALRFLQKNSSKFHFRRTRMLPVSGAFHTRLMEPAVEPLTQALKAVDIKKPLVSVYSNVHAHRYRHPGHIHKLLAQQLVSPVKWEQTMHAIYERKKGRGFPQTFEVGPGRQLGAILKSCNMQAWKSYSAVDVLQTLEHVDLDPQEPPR

How the values were obtained:
Assay in all cases: log2 fold change, soluble protein after heating vs DMSO (PISA); higher = thermal stabilisation; K562 lysate, 10 uM; active = over 0.2 and 3.5 SD of the protein, either way, in both replicates (recomputed)
lapatinib = compound: CS(=O)(=O)CCNCc1ccc(-c2ccc3ncnc(Nc4ccc(OCc5cccc(F)c5)c(Cl)c4)c3c2)o1 [lapatinib]
How it was run: (§1)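 Pellets of K562 cells were dounce-homogenised in PBS pH 7.4 with 1 mM MgCl2, and the crude extract was held at 1 mg/mL protein for a 30 min treatment with 10 μM compound. Aliquots were heated for 3 min over 48°C-58°C and pooled before NP-40 was added to 0.5% at 4°C. The supernatant from 21,000xg for 90 min was quantified by TMTpro 16plex LC-MS/MS with channel sums equalised. Values are reported from duplicates as log-two fold change in thermal stability relative to solvent controls.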

pictilisib = compound: CS(=O)(=O)N1CCN(Cc2cc3nc(-c4cccc5[nH]ncc45)nc(N4CCOCC4)c3s2)CC1 [pictilisib]
How it was run: as §1

crizotinib = compound: C[C@@H](Oc1cc(-c2cnn(C3CCNCC3)c2)cnc1N)c1c(Cl)ccc(F)c1Cl [crizotinib]
How it was run: as §1

[1] = compound: C[C@H](C1=CC=C(C=C1)C(=O)NC2=C3C=CNC3=NC=C2)N
How it was run: as §1

duvelisib = compound: C[C@H](Nc1ncnc2nc[nH]c12)c1cc2cccc(Cl)c2c(=O)n1-c1ccccc1 [duvelisib]
How it was run: as §1

gandotinib = compound: Cc1cc(Nc2cc(CN3CCOCC3)c3nc(C)c(Cc4ccc(Cl)cc4F)n3n2)n[nH]1 [gandotinib]
How it was run: as §1

tozasertib = compound: Cc1cc(Nc2cc(N3CCN(C)CC3)nc(Sc3ccc(NC(=O)C4CC4)cc3)n2)n[nH]1 [tozasertib]
How it was run: as §1

doramapimod = compound: Cc1ccc(-n2nc(C(C)(C)C)cc2NC(=O)Nc2ccc(OCCN3CCOCC3)c3ccccc23)cc1 [doramapimod]
How it was run: as §1

bafetinib = compound: Cc1ccc(NC(=O)c2ccc(CN3CC[C@H](N(C)C)C3)c(C(F)(F)F)c2)cc1Nc1nccc(-c2cncnc2)n1 [bafetinib]
How it was run: as §1

[2] = compound: Cc1cccc(CC(=O)N2CCc3c2ccc(-c2cn(C)c4ncnc(N)c24)c3F)n1
How it was run: as §1

Measured: log2 fold change

MEMO1 (UniProt Q9Y316)
inactive: lapatinib 0.02 | pictilisib -0.004 | crizotinib -0.011 | [1] -0.028 | duvelisib -0.014 | gandotinib -0.006 | tozasertib 0.027 | doramapimod -0.002 | bafetinib 0.039 | [2] -0.012

MED20 (UniProt Q9H944)
inactive: lapatinib 0.085 | pictilisib -0.049 | crizotinib -0.009 | [1] -0.11 | duvelisib -0.025 | gandotinib 0.136 | tozasertib 0.078 | doramapimod -0.047 | bafetinib -0.099 | [2] 0.123

MEIS2 (UniProt O14770)
inactive: lapatinib 0.022 | pictilisib -0.107 | crizotinib -0.021 | [1] -0.044 | duvelisib -0.013 | gandotinib 0.045 | tozasertib -0.066 | doramapimod 0.017 | bafetinib -0.003 | [2] 0.013

MED30 (UniProt Q96HR3)
inactive: lapatinib -0.009 | pictilisib -0.113 | crizotinib -0.069 | [1] -0.029 | duvelisib -0.091 | gandotinib 0.033 | tozasertib 0.066 | doramapimod 0.04 | bafetinib 0.025 | [2] 0.067

MED4 (UniProt Q9NPJ6)
inactive: lapatinib 0.027 | pictilisib -0.002 | crizotinib 0.001 | [1] -0.043 | duvelisib 0.018 | gandotinib 0.066 | tozasertib 0.024 | doramapimod -0.036 | bafetinib -0.009 | [2] 0.02

METAP1 (UniProt P53582)
inactive: lapatinib -0.014 | pictilisib 0.014 | crizotinib 0.002 | [1] -0.215 | duvelisib -0.037 | gandotinib 0.065 | tozasertib 0.013 | doramapimod 0.029 | bafetinib -0.026 | [2] 0.049

METTL7A (UniProt Q9H8H3)
inactive: lapatinib 0.023 | pictilisib 0.019 | crizotinib 0.177 | [1] -0.019 | duvelisib 0.021 | gandotinib 0.226 | tozasertib -0.081 | doramapimod 0.071 | bafetinib 0.048 | [2] 0.019

MED18 (UniProt Q9BUE0)
inactive: lapatinib 0.03 | pictilisib 0.033 | crizotinib 0.025 | [1] 0.129 | duvelisib -0.005 | gandotinib -0.159 | tozasertib 0.01 | doramapimod 0.025 | bafetinib 0.112 | [2] -0.113

MCTS1 isoform 3 (UniProt Q9ULC4)
inactive: lapatinib 0.005 | pictilisib -0.01 | crizotinib 0.071 | [1] 0.097 | duvelisib -0.008 | gandotinib -0.002 | tozasertib 0.024 | doramapimod -0.007 | bafetinib -0.007 | [2] -0.039

MAX (UniProt P61244)
inactive: lapatinib -0.039 | pictilisib 0.075 | crizotinib 0.009 | [1] -0.003 | duvelisib 0.001 | gandotinib 0.068 | tozasertib 0.01 | doramapimod -0.053 | bafetinib 0.137 | [2] -0.039

MCFD2 isoform 2 (UniProt Q8NI22)
inactive: lapatinib -0.024

MED13 (UniProt Q9UHV7)
inactive: lapatinib -0.053 | pictilisib -0.069 | crizotinib -0.04 | [1] 0.02 | duvelisib -0.005 | gandotinib -0.011 | tozasertib 0.013 | doramapimod -0.002 | bafetinib -0.03 | [2] -0.023

ME3 (UniProt Q16798)
inactive: lapatinib 0.086 | pictilisib 0.001 | crizotinib -0.067 | [1] -0.024 | duvelisib 0.137 | gandotinib 0.084 | tozasertib 0.043 | doramapimod 0.042 | bafetinib -0.054 | [2] 0.135

MDP1 (UniProt Q86V88)
inactive: lapatinib 0.045 | pictilisib 0.002 | crizotinib -0.013 | [1] 0.007 | duvelisib 0.021 | gandotinib -0.028 | tozasertib 0.024 | doramapimod 0.003 | bafetinib -0.049 | [2] -0.087

MFSD1 isoform 6 (UniProt Q9H3U5)
inactive: lapatinib 0.006 | pictilisib -0.058 | crizotinib -0.03 | [1] -0.098 | duvelisib 0.034 | gandotinib 0.054 | tozasertib 0.059 | doramapimod 0.034 | bafetinib -0.006 | [2] 0.012

MFN1 (UniProt Q8IWA4)
inactive: lapatinib -0.113 | pictilisib -0.036 | crizotinib -0.07 | [1] -0.212 | duvelisib 0.013 | gandotinib 0.009 | tozasertib -0.068 | doramapimod 0.024 | bafetinib -0.07 | [2] 0.037

MED14 (UniProt O60244)
inactive: lapatinib -0.032 | pictilisib -0.006 | crizotinib -0.016 | [1] -0.058 | duvelisib -0.033 | gandotinib -0.016 | tozasertib 0.046 | doramapimod -0.028 | bafetinib -0.036 | [2] 0.037

MCM3 isoform 2 (UniProt P25205)
inactive: lapatinib 0.005 | pictilisib -0.009 | crizotinib 0.015 | [1] 0.059 | duvelisib -0.015 | gandotinib -0.025 | tozasertib -0.013 | doramapimod 0.007 | bafetinib 0.025 | [2] -0.011

METAP2 (UniProt P50579)
inactive: lapatinib -0.002 | pictilisib -0.016 | crizotinib 0 | [1] -0.041 | duvelisib 0.007 | gandotinib 0.021 | tozasertib -0.014 | doramapimod -0.041 | bafetinib 0.047 | [2] 0.01

MCM6 (UniProt Q14566)
inactive: lapatinib -0.006 | pictilisib -0.004 | crizotinib -0.014 | [1] -0.007 | duvelisib -0.009 | gandotinib -0.056 | tozasertib 0.015 | doramapimod 0.002 | bafetinib -0.026 | [2] 0.006

MBD3 (UniProt O95983)
inactive: lapatinib -0.014 | pictilisib -0.022 | crizotinib 0.008 | [1] -0.046 | duvelisib 0.015 | gandotinib 0.051 | tozasertib 0.018 | doramapimod -0.063 | bafetinib -0.034 | [2] 0.054

METTL16 (UniProt Q86W50)
inactive: lapatinib -0.075 | pictilisib 0 | crizotinib 0.046 | [1] 0.036 | duvelisib -0.022 | gandotinib -0.05 | tozasertib -0.032 | doramapimod -0.04 | bafetinib 0.027 | [2] -0.012

Reprinted at random: two entries already listed.
MBD3 (UniProt O95983)
inactive: lapatinib -0.014 | pictilisib -0.022 | crizotinib 0.008 | [1] -0.046 | duvelisib 0.015 | gandotinib 0.051 | tozasertib 0.018 | doramapimod -0.063 | bafetinib -0.034 | [2] 0.054

METTL16 (UniProt Q86W50)
inactive: lapatinib -0.075 | pictilisib 0 | crizotinib 0.046 | [1] 0.036 | duvelisib -0.022 | gandotinib -0.05 | tozasertib -0.032 | doramapimod -0.04 | bafetinib 0.027 | [2] -0.012

Following part.

MCU (UniProt Q8NE86)
inactive: lapatinib -0.145 | pictilisib -0.041 | crizotinib -0.125 | [1] -0.03 | duvelisib 0.037 | tozasertib -0.02 | doramapimod 0.085 | bafetinib -0.108 | [2] 0.032
active: gandotinib -0.311

MED17 (UniProt Q9NVC6)
inactive: lapatinib 0.003 | pictilisib 0.018 | crizotinib -0.029 | [1] -0.058 | duvelisib -0.005 | gandotinib -0.037 | tozasertib -0.043 | doramapimod 0.008 | bafetinib -0.005 | [2] 0.034

ME1 (UniProt P48163)
inactive: lapatinib 0.007 | pictilisib -0.016 | crizotinib 0.008 | [1] -0.057 | duvelisib 0.011 | gandotinib 0.039 | tozasertib 0.028 | doramapimod -0.011 | bafetinib -0.025 | [2] 0.001

MBNL1 (UniProt C9JP00)
inactive: lapatinib 0.029 | pictilisib -0.089 | crizotinib 0.037 | [1] 0.015 | duvelisib -0.056 | gandotinib -0.047 | tozasertib 0.027 | doramapimod -0.015 | bafetinib 0.06 | [2] -0.019

MCAT (UniProt Q8IVS2)
inactive: lapatinib -0.077 | pictilisib -0.053 | crizotinib 0.011 | [1] -0.063 | duvelisib 0.018 | gandotinib 0.07 | tozasertib 0.001 | doramapimod 0.007 | bafetinib -0.012 | [2] -0.01

MBOAT7 (UniProt Q96N66)
inactive: lapatinib -0.096 | pictilisib -0.013 | crizotinib 0.044 | [1] -0.133 | duvelisib -0.03 | gandotinib -0.022 | tozasertib -0.03 | doramapimod -0.076 | bafetinib -0.024 | [2] 0.11
